Laboratory results taken from patent US20250296975A1.
No constants are given. Whether binding was seen depends on the method and setting. Some binding calls cover weakened binding; strength is not graded here.

Protein sequences, listed by entry. Tags and fused reporters are not part of them.
UniProt O14493: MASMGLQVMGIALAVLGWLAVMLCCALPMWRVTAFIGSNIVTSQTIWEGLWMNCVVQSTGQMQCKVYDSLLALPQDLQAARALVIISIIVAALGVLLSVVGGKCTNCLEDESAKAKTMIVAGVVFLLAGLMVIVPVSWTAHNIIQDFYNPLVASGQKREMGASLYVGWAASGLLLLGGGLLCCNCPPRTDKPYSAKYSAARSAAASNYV

Target: claudin-4 (UniProt O14493)
Test: flow cytometry on HCC38 cells compared to HEK

B1: claudin-4 targeting scFv EK01 (scFv, V domains shown, not shown: large carriers; small tags and cut ends)
VH: EVQLVQSGGGLIQPGGSLRLSCAASGFTVSSNYMSWVRQAPGKGLEWVSVIYSGGSTYYADSVKGRFTISRDNSKNTLYLQMNSLRAEDTAVYYCARDNPLSAFDIWGQGTLVTVSL
VL: DIVMTQTPSTLSASVGDRVTITCRASQSINSWLAWYQQKSGKAPKLLIYKASSLGSGVPSRFSGSGSDIEFTLTISSLQPDDFATYYCQQYDDLPLTFGGGTKVEIK
**Q.** With B1 as the binder, how does the binding read?
**A.** Its binding is “binds”.
